Assay results from article PMC8789040.
For part of these data: The comparison behind a weaker result is the experiment's own reference, which may not be listed here. For part of these data: The exact form of at least one protein or probe is not confirmed. For part of these data: No signal at the amounts used counts as a negative. For part of these data: At least one verdict was read from the data and is not stated in words by the source.

Protein sequences, listed by entry. Tags and fused reporters are not part of them. Residues count along the entry.
UniProt O29494, whole entry E34S: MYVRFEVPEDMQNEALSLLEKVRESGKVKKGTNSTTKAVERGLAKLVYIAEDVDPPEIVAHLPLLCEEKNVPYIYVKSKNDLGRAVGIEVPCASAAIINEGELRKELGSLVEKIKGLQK
UniProt O29494, 2-119: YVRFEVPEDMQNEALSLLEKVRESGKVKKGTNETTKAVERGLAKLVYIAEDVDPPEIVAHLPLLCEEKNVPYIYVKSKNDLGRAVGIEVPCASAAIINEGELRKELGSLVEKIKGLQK

What was measured:
Test in all cases: SPR
[1] = molecular target: L7Ae (Archaeoglobus fulgidus (printed A. fulgidus)) (UniProt O29494); details: SPR: 10 mM HEPES pH 7.4, 150 mM NaCl, 1 mM MgCl2, 0.05% P20, 0.25 mM TCEP, 0.1 mg/ml BSA, 25 ug/ml yeast tRNA, 25 C; recombinant protein; protein details: N-term Twin-Strep-tag, C-term 6xHis
LS12 E34S = LS12 E34S (UniProt O29494); details: SPR: 10 mM HEPES pH 7.4, 150 mM NaCl, 1 mM MgCl2, 0.05% P20, 0.25 mM TCEP, 0.1 mg/ml BSA, 25 ug/ml yeast tRNA, 25 C; recombinant protein; protein details: N-term Twin-Strep-tag, C-term 6xHis
[2] = molecular target: L7Ae (Archaeoglobus fulgidus) (UniProt O29494); details: SPR running buffer: 10 mM HEPES pH 7.4, 150 mM NaCl, 0.05% Surfactant P20, 1 mM MgCl2, 0.25 mM TCEP, 0.1 mg/ml BSA, 25 ug/ml yeast tRNA, 25 C; recombinant protein; protein details: N-term Twin-Strep-tag, C-term 6xHis
LS4 = LS4 (UniProt O29494); details: SPR: 10 mM HEPES pH 7.4, 150 mM NaCl, 1 mM MgCl2, 0.05% P20, 0.25 mM TCEP, 0.1 mg/ml BSA, 25 ug/ml yeast tRNA, 25 C; recombinant protein; protein details: N-term Twin-Strep-tag, C-term 6xHis

Sequence: GGAUGCAAAGAACGAAAGUUCCAUGACGCAUCCAAAUCGACGAAAGACACAGAACG [CS2-M1]
- binding result [1]: binds more weakly
- binding result (LS12 E34S): binds more weakly

Sequence: GGAUGCAGAGAACGAAAGUUCCAUGCCGCAUCCAAAUCGACGAAAGACACAGAACG [CS2-M4]
- binding result [1]: binds more weakly
- binding result (LS12 E34S): binds more weakly

Sequence: GGAUGCAGAGAACGAAAGUUCCAUUACGCAUCCAAAUCGACGAAAGACACAGAACG [CS2-M3]
- binding result [2]: binds more weakly

Sequence: GGAUGCAGCGAACGAAAGUUCCAUGACGCAUCCAAAUCGACGAAAGACACAGAACG [CS2-M2]
- binding result [1]: binds more weakly
- binding result (LS12 E34S): binds more weakly

Sequence: GGUGGCAAAGAAAGGCGAAAGCCUUGUGGGGCCAUCAAAUCGACGAAAGACACAGAACG [CS1-M2d]
- binding result [2]: binds more weakly

Sequence: GGUGGCAAAGAAAGGCGAAAGCCUUGUGUGGCCAUCAAAUCGACGAAAGACACAGAACG [CS1-M2e]
- binding result [2]: binds more weakly

Sequence: GGUGGCAGAGUAAGGCGAAAGCCUUUUGAGGCCAUCAAAUCGACGAAAGACACAGAACG [CS1-M4]
- binding result (LS4): no binding

Sequence: GGUGGCAGUGAAAGGCGAAAGCCUUGUUAGGCCAUCAAAUCGACGAAAGACACAGAACG [CS1-M3]
- binding result (LS4): no binding

Sequence: GGUGGCAUAGAAAGGCGAAAGCCUUGUGUGGCCAUCAAAUCGACGAAAGACACAGAACG [CS1-M2]
- Kd [1]: > 1000 nM
